Experimental data: PubChem BioAssay AID1224827 (NIAID, 2016)
Assay: 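Identify regulators of the macrophage TNF-alpha response to bacterial LPS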 (follow-up of hits). Cell system: RAW264.7 G9 mouse macrophage reporter clone. Reagents: single siRNA against mouse genes, 100 nM siRNA. Timing: siRNA for 2 days, then LPS about 16 h. Treatment: bacterial lipopolysaccharide (LPS), 10 ng/ml, cells fixed after overnight (about 16 h) stimulation. Measurement: 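Imaged nuclear TNF reporter intensity, background removed, scaled per plate and to non-targeting control wells, as z-scores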. Reading the numbers: TNF reporter z-score, mean: higher = stronger Tnf promoter reporter signal. Rule for the call: 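An siRNA is called active when its mean z-score over replicates is at least +2 or at most -2; control wells get no call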.
The deposit covers about 3,800 reagents; this is a part drawn at random. In the full data, about 2,200 (57%) got an active call. 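Active means a strong reporter change in either direction; calls are per siRNA, not per gene; qiagen siRNAs gave weaker effects.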 Entries without a mark were called inactive. The numbers tell different reagents against one gene apart. Not all columns of the deposit are shown.

TNF reporter z-score, mean, by gene and reagent
Sox11: #1 -1.8; #2 -4.24 (active); #3 -4.79 (active); #4 3.72 (active); #5 2.78 (active); #6 1.09
Ces2e: #1 3.27 (active); #2 -3.49 (active); #3 -4.31 (active); #4 0.951; #5 0.621; #6 -0.815
Phax: #1 0.447; #2 -2.14 (active); #3 -4.25 (active); #4 2.61 (active); #5 1.72; #6 1.06
Smad1: #1 -2.56 (active); #2 -3.34 (active); #3 -5.31 (active); #4 1.72; #5 0.447; #6 -3.55 (active)
Bpifa1: #1 -2.93 (active); #2 -2.83 (active); #3 -3.19 (active); #4 0.482; #5 -0.446; #6 -3.12 (active)

Already shown: an excerpt of the list.
TNF reporter z-score, mean, by gene and reagent
Ces2e: #2 -3.49 (active); #3 -4.31 (active); #4 0.951; #5 0.621; #6 -0.815
Phax: #1 0.447; #2 -2.14 (active)

The list goes on.
TNF reporter z-score, mean, by gene and reagent
Thrsp: #1 2.83 (active); #2 0.136; #3 -3.58 (active); #4 1.44; #5 1.63; #6 -2.18 (active)
Tox: #1 -3.4 (active); #2 -4.01 (active); #3 -4.32 (active); #4 4.45 (active); #5 1.82; #6 -0.817
Gab1: #1 8.59 (active); #2 -4.65 (active); #3 -5 (active); #4 2.79 (active); #5 2.09 (active); #6 -2.48 (active)
Chst8: #1 -2.9 (active); #2 -3.9 (active); #3 -4.38 (active); #4 2.96 (active); #5 -1.22; #6 -2.69 (active)
Ndufaf4: #1 -1.02; #2 -4.07 (active); #3 -5.17 (active); #4 3 (active); #5 1.1; #6 -0.545
Or4p18: #1 -1.93; #2 -2.4 (active); #3 -2.25 (active); #4 4.7 (active); #5 -0.818; #6 -1.19
Mobp: #1 -1.32; #2 -2.17 (active); #3 -4.41 (active)
Il17a: #1 -2.59 (active); #2 -3.06 (active); #3 -4.91 (active); #4 3.11 (active); #5 1.88; #6 -0.466
